## Small-molecule microarray binding calls

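Compounds were printed on reactive glass slides in duplicate spots, a dye-labelled oligonucleotide was laid over them, and the fluorescence left after washing was read. For the PreQ1, TPP and SAM-II riboswitches the laboratory earlier reported (doi:10.1038/s41467-019-09493-3) 1 µM RNA, 2 h, and a rule that included a mean Z-score above 3 (spot signal-to-noise against the whole library), a score well above that on a control array, and duplicate spots agreeing (coefficient of variation under 100). The data file gives only the calls; its cut-offs may differ, and compounds hitting several targets are kept. The calls come from the array alone, and fixing a compound to the slide can hide its binding.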 A compound is marked hit if it was called a hit and no hit if it was screened but was not. This is an unselected part of the compounds tested. A target missing from an entry has no call listed here. A dash means that no call is listed here.

Targets, with sequences 5′ to 3′:
PreQ1: PreQ1 riboswitch RNA pseudoknot, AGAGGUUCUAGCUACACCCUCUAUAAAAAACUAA. From B. subtilis. About 170 hits among about 24,000 compounds.
TPP: TPP riboswitch RNA three-way junction, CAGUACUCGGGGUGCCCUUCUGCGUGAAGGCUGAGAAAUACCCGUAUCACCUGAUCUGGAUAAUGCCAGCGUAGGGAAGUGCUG. About 160 hits among about 24,000 compounds.
SAM-II: SAM-II riboswitch RNA pseudoknot, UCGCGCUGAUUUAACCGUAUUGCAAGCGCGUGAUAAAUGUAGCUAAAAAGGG. About 200 hits among about 21,000 compounds.

With CNC[C@H](O)c1ccc(O)c(O)c1 the screen gave PreQ1: no hit; TPP: no hit; SAM-II: no hit.
With COc1ccc(-c2noc(-c3nnn(-c4ccc(Br)cc4)c3N)n2)cc1 the screen gave PreQ1: no hit; TPP: no hit.
With Nc1nc2c(c(NCCN3CCCC3)n1)CCCC2 the screen gave PreQ1: no hit; TPP: no hit; SAM-II: no hit.
With O=C1CC(Nc2ccc(F)cc2)C(=O)N1c1ccc(N2CCCCC2)cc1 (stereo not given) the screen gave PreQ1: no hit; TPP: no hit; SAM-II: no hit.
With COCCc1ccc(OCc2ccccc2-c2cnc(N)cn2)cc1 the screen gave PreQ1: no hit; TPP: no hit; SAM-II: no hit.
With CC1CC(Nc2ccccc2)c2ccccc2N1C(=O)c1ccco1 (stereo not given) the screen gave PreQ1: no hit; TPP: no hit; SAM-II: no hit.
With O=C1C2C3C=CC(C3)C2C(=O)N1c1ccccc1CO (stereo not given) the screen gave PreQ1: no hit; TPP: no hit; SAM-II: no hit.
With OCCCCCn1cc(-c2ccccc2-c2ccco2)nn1 the screen gave PreQ1: no hit; TPP: no hit; SAM-II: no hit.
With COc1ccc(C2(CCNCc3ccc(Cl)cc3)CCOC(C)(C)C2)cc1 (stereo not given) the screen gave PreQ1: no hit; TPP: no hit; SAM-II: no hit.
With CCCNCc1ccc(OCc2ccc3c(c2)n(C)c(=O)n3C)c(OC)c1 the screen gave PreQ1: no hit; TPP: no hit.
With O=C(CCCc1cn[nH]c1)N1CCC2(CC1)Nc1ccccc1NC2=O the screen gave PreQ1: no hit; TPP: no hit; SAM-II: no hit.
With Clc1ccc2nc(-c3ccsc3)c(Nc3ccc4c(c3)OCCO4)n2c1 the screen gave PreQ1: no hit; TPP: no hit; SAM-II: no hit.
With C[C@H](NCc1ccc(OCc2cccc(F)c2)cc1)C(N)=O the screen gave PreQ1: no hit; TPP: no hit; SAM-II: no hit.
With N#Cc1c(-c2ccc3c(c2)OCO3)c(C#N)c2nc3ccccc3n2c1N the screen gave PreQ1: no hit; TPP: no hit; SAM-II: hit.
With Cc1noc(-c2cccnc2NCCc2ccccc2)n1 the screen gave PreQ1: no hit; TPP: no hit.
With Cc1cc(C)n(CCCN)n1 the screen gave PreQ1: no hit; TPP: no hit; SAM-II: no hit.
With CN(C)P(=O)(N(C)C)N1CC1 the screen gave PreQ1: no hit; TPP: no hit; SAM-II: no hit.
With CC(=O)N1CCc2cc(C(O)CN(Cc3ccccc3)Cc3ccccc3)ccc21 (stereo not given) the screen gave PreQ1: no hit; TPP: no hit; SAM-II: no hit.
With C=C1C(C)(C)[C@H]2CC[C@]1(C(=O)NCCCN1CCC(O)CC1)C2 the screen gave PreQ1: no hit; TPP: no hit; SAM-II: no hit.
With CCCNc1cc(C)nc2c(C)c(-c3cccc(C)c3)nn12 the screen gave PreQ1: no hit; TPP: no hit.
With Nc1nc(SCc2ccccc2)ns1 the screen gave PreQ1: no hit; TPP: no hit; SAM-II: no hit.
With CC(C)(C)c1n[nH]c2c1C(c1cccc(O)c1)C(C#N)=C(N)O2 (stereo not given) the screen gave PreQ1: no hit; TPP: no hit; SAM-II: no hit.
With Cc1ccc(NC(=O)[C@@H]2CNC[C@H](C(=O)NCc3cnn(C)c3C)C2)cc1 the screen gave PreQ1: no hit; TPP: no hit; SAM-II: no hit.
With COc1ccc(C(=O)c2oc3ccc(Cl)cc3c2N)cc1 the screen gave PreQ1: no hit; TPP: no hit; SAM-II: no hit.
With CCOC(=O)C1CCN(c2c(NCCN(CC)c3ccccc3)c(=O)c2=O)CC1 the screen gave PreQ1: no hit; TPP: no hit; SAM-II: no hit.
With CC1(C(=O)NCCCN2Cc3ccccc3C2)CCNCC1 the screen gave PreQ1: no hit; TPP: no hit; SAM-II: no hit.
With CCOc1ccc(C(=O)Oc2cc(N)n(S(=O)(=O)c3ccc(F)cc3)n2)cc1 the screen gave PreQ1: no hit; TPP: no hit; SAM-II: no hit.
With COc1ccc(C2CC(C(F)(F)F)n3nc(C(=O)Nc4cccc(C(C)O)c4)c(Cl)c3N2)cc1 (stereo not given) the screen gave PreQ1: no hit; TPP: no hit; SAM-II: no hit.
With CC(O)CSc1nc2c(c(=O)[nH]c(=O)n2C)n1Cc1ccc(Cl)cc1 (stereo not given) the screen gave PreQ1: no hit; TPP: no hit; SAM-II: no hit.
With CCn1nc(C)c(NC(=O)CNC[C@H]2C[C@H]3C=C[C@H]2C32CC2)c1C the screen gave PreQ1: no hit; TPP: no hit; SAM-II: no hit.
With CC1(C)CC(=O)C2=C(C1)OC(N)=C(C#N)C2c1cccc(O)c1 (stereo not given) the screen gave PreQ1: no hit; TPP: no hit; SAM-II: no hit.
With O=C(c1ccc(-c2cn(-c3ccccc3)cn2)cc1)N1Cc2ccccc2C(O)C1 (stereo not given) the screen gave PreQ1: no hit; TPP: no hit; SAM-II: no hit.
With COC(=O)CCC(=O)c1oc2ccc(Cl)cc2c1N the screen gave PreQ1: no hit; TPP: no hit; SAM-II: no hit.
With c1ccc(Nc2nc(N3CCOCC3)c3ccccc3n2)cc1 the screen gave PreQ1: no hit; TPP: no hit; SAM-II: no hit.
With COc1cccc(Nc2c(S(=O)(=O)c3ccc(C)cc3)cnc3ccccc23)c1 the screen gave PreQ1: no hit; TPP: no hit.
With CNC(C(=O)NCc1cc2n(n1)CCN(C(=O)N(C)C)C2)c1ccccc1 (stereo not given) the screen gave PreQ1: no hit; TPP: no hit; SAM-II: no hit.
With Cc1cc(N2CCNCC(C(=O)O)C2)nc(C)c1C#N (stereo not given) the screen gave PreQ1: no hit; TPP: no hit; SAM-II: no hit.

Repeated from the top, 4 entries:

SMILES,PreQ1,TPP,SAM-II
CNC[C@H](O)c1ccc(O)c(O)c1,no hit,no hit,no hit
COc1ccc(-c2noc(-c3nnn(-c4ccc(Br)cc4)c3N)n2)cc1,no hit,no hit,-
Nc1nc2c(c(NCCN3CCCC3)n1)CCCC2,no hit,no hit,no hit
O=C1CC(Nc2ccc(F)cc2)C(=O)N1c1ccc(N2CCCCC2)cc1 (stereo not given),no hit,no hit,no hit

Data from the ROBIN nucleic acid binder screens, doi:10.1002/anie.202211358.